Here are results for 1 molecule from article PMC9242446.

No constants are given. Whether binding was seen depends on the method and setting. Some entries that bind do so weakly or less than the wild type.

For the assay, the target named is Bacillus subtilis ParB (partition protein B) L5C variant labeled with Alexa Fluor 647 (Bacillus subtilis) (UniProt P26497). The assay can be described thus: single-molecule fluorescence imaging (HiLo microscopy) on stretched DNA; as a1 but 1 mM CTPγS in place of 1 mM CTP; both purified.

B1: Bacillus subtilis ParB (partition protein B) L5C variant labeled with Alexa Fluor 647 (protein, UniProt P26497 1-282)
chain: MAKGCGKGINALFNQVDLSEETVEEIKIADLRPNPYQPRKHFDDEALAELKESVLQHGILQPLIVRKSLKGYDIVAGERRFRAAKLAGLDTVPAIVRELSEALMREIALLENLQREDLSPLEEAQAYDSLLKHLDLTQEQLAKRLGKSRPHIANHLRLLTLPENIQQLIAEGTLSMGHGRTLLGLKNKNKLEPLVQKVIAEQLNVRQLEQLIQQLNQNVPRETKKKEPVKDAVLKERESYLQNYFGTTVNIKRQKKKGKIEIEFFSNEDLDRILELLSERES
modifications: Alexa Fluor 647-C2-maleimide on the L5C variant (labeling efficiency 74%)
As for B1, the binding result is “binds weakly”.
